This experiment concerns the target MBP-Kif2C (human Kif2C expressed with MBP-tag) (human) (UniProt Q99661). As to the kind of experiment: affinity purification with mass spectrometry; MBP-Kif2C on amylose beads or blank beads incubated in lysates of doxorubicin-treated HeLa cells; pull-down samples analysed by mass spectrometry; only the target purified.

Protein sequences, listed by entry. Tags and fused reporters are not part of them.
UniProt P09874: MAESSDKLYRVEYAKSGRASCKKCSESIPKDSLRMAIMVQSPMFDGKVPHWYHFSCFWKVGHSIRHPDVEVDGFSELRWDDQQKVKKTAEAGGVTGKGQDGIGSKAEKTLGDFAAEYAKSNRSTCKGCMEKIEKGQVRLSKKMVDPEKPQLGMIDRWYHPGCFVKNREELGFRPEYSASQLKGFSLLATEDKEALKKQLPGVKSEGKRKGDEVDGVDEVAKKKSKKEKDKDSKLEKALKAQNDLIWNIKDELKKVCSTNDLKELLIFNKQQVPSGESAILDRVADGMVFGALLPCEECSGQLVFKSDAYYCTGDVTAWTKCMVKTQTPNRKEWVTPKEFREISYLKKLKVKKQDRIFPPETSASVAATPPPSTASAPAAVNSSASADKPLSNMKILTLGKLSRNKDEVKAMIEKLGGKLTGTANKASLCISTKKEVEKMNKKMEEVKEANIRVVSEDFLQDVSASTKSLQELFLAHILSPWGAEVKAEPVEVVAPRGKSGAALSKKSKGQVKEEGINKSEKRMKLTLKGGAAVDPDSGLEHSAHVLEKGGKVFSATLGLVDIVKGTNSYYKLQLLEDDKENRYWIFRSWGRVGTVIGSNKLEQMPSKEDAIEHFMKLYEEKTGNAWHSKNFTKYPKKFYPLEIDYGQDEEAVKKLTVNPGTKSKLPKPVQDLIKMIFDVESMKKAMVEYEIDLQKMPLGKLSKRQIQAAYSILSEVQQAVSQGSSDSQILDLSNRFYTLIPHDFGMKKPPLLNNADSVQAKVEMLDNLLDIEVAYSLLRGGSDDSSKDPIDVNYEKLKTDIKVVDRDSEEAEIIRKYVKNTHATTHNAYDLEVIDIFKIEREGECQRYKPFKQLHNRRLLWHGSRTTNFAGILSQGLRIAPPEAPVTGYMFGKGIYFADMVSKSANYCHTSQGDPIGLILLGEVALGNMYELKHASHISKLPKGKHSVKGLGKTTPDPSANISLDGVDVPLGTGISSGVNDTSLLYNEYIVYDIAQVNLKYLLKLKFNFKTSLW

Results are given in words; binding and its absence hold for the method and conditions named. In cells and extracts the contact can be indirect. A yes stands for co-enrichment or nearness to the bait. Other partners may have been found. Tags and fused reporters may be left off the sequences shown.

For the substance PARP1 (from UniProt P09874 1-1014), the binding result is “binds”.
